{
  "sequences": {"note": "By UniProt entry, the sequences of proteins in these tests, tags left out. Where a name states a change or a piece, a line headed by the entry shows the natural chain unless it says otherwise.", "UniProt A0A2U9GGW3": "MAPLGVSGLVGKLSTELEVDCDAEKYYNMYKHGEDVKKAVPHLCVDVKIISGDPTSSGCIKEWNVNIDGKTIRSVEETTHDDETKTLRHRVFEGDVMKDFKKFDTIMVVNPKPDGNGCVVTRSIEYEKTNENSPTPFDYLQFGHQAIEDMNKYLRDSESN", "UniProt P0DYP9, entry or part of it": "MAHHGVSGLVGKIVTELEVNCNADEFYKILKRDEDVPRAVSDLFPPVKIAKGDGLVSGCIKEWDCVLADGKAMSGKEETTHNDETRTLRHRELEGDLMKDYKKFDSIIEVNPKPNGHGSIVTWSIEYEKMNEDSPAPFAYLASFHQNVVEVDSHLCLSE"},
  "source": "paper PMC9646721",
  "about": "“Alkaloid binding to opium poppy major latex proteins triggers structural modification and functional aggregation” (Nature Communications, 2022)",
  "key": {"THS2": {"target": "THS2 (Papaver somniferum, UniProt A0A2U9GGW3)", "assay": "ANS displacement assay", "settings": "10 µM protein and 10 µM ANS, CBS pH 5.5"}, "NISO [1]": {"target": "T1, NISO (Papaver somniferum, UniProt P0DYP9)", "assay": "ANS displacement assay"}, "MLP15": {"target": "T2, MLP15 (Papaver somniferum, UniProt P19825)", "T2 sequence (P19825 1-159)": "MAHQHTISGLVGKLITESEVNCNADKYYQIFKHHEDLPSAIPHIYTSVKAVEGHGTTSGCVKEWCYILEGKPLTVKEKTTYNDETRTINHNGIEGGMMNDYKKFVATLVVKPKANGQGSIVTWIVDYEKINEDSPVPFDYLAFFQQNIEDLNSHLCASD", "assay": "ANS displacement assay"}, "NISO [2]": {"target": "T1, NISO", "assay": "Isothermal titration calorimetry", "type": "binding", "design": "made in house; host or cells: E. coli ArcticExpress (DE3)", "settings": "ITC, PBS pH 7.4, 25 °C, single-site model", "description": "ITC experiments were conducted using a Microcal VP instrument (Malvern Pananalytical, Malvern, UK). […] Eluates were twice dialysed to equilibrium (i.e., 10–12 h at 4 °C) against a 1000-fold (2–4 L) volume of PBS, pH 7.4 (25 mM sodium phosphate, 50 mM NaCl) or CBS, pH 5.5, resulting in a theoretical million-fold dilution of undesired small molecules (e.g., <0.2 µM imidazole). Dialysis was carried out in boiled Spectra/Por 1 6–8 kDa MWCO 0.32 ml/cm (Spectrum Labs, USA) tubing thoroughly washed with either buffer before use. The second 1000-fold volume of dialysis buffer was filtered and degassed using a reusable bottle-top filtration apparatus (Nalgene, USA) with disposable […] cellulose filters (VWR, Canada) prior to storage at 4 °C. […] Any precipitate was separated from the remaining soluble protein fraction which was quantified by absorption at A280nm and diluted with filtered dialysis buffer immediately before use.\nThermograms were recorded at 25 °C, with a reference power of 10 (dpu/sec) and monitoring of 30 injections of 9 µl BIA ligand solutions into a sample cell containing 1.4 ml of an MLP/PR10 protein solution, with 300 seconds between injections. […] After subtraction, binding isotherms were analyzed in MicroCal Origin 7 (MicroCal, USA) by fitting a single-site binding model using non-linear least squares regression analysis repeated until convergence. […]"}},
  "data": [
    {"smiles": "CN1CC[C@]23c4c5ccc(O)c4O[C@H]2[C@@H](O)C=C[C@H]3[C@H]1C5", "note": "[Morphine, morphine]", "values": [
      {"measurement": "IC50", "setting": "THS2", "result": "> 1000", "unit": "µM"},
      {"measurement": "Kd", "setting": "NISO [1]", "result": 44, "unit": "µM"},
      {"measurement": "Kd", "setting": "MLP15", "result": 1060, "unit": "µM"},
      {"measurement": "Kd", "setting": "NISO [2]", "result": "5.46 ± 0.22", "unit": "µM"}
    ]}
  ]
}
